Test results reported in PubChem BioAssay AID540276 (National Center for Advancing Translational Sciences (NCATS), 2011).
The campaign covered roughly 300,000 compounds. About 5,400 (1.8%) were called active. Inconclusive means that the source gave no clear call. Such entries were picked first, then a sample of the others. Calls follow the shape of the full dose curve; tested in HEK293 cells. Where the call is inconclusive, the potency comes from a doubtful curve fit.

Test: qHTS for inhibitors of binding or entry into cells for Marburg Virus
Conditions: Marburg virus pseudotyped entry inhibition, cell reporter; activity change, negative = inhibition: at 37.8 µM (top of the series) unless noted
% is scaled to controls: 0 for no effect and ±100 for the full control effect; potency is read from the fitted curve at half-maximal effect.

Row | SMILES | activity change, negative = inhibition | Potency
1 | Cc1cc(NC(=O)c2ccco2)ccc1-n1cnnn1 | inactive: 6.92% | –
2 | COc1ccc(OC)c(-c2nnc(SCC(=O)N3CCOCC3)o2)c1 | inactive: 9.04% | –
3 | O=C(Nc1ccnn1C1CCN(CCCc2ccccc2)CC1)c1cccc(F)c1 | – | inconclusive: 31.6 µM [inhibitor, single point]
4 | COC(=O)CC(CC(=O)OC)n1cccc1 | inactive: 28.2% | –
5 | CCN1C(=O)c2ccccc2S(=O)(=O)c2ccc(C(=O)NCCCN(CC(C)C)CC(C)C)cc21 | – | inconclusive: 35.5 µM [inhibitor, partial curve, poor fit]
6 | Cc1c(Cl)cccc1NC(=O)CCNC(=O)N1CC(=O)Nc2ccccc21 | – | inconclusive: 2.82 µM [activator, full curve, poor fit]
7 | O=C(COC(=O)/C(=C/c1cccs1)c1cccs1)NCc1ccccc1Cl | – | inconclusive: 35.5 µM [inhibitor, single point]
8 | Cc1ccc(NC(=O)COC(=O)c2ccccc2-c2nc3ccccc3s2)c(C)c1 | inactive: 24.6% | –
9 | Cc1ccc2cc3c(N)[nH]nc3nc2c1 | inactive: 9.07% | –
10 | O=C(CN1C(=O)NC2(CCCC2)C1=O)N1CCN(S(=O)(=O)c2ccccc2F)CC1 | – | inconclusive: 0.112 µM [inhibitor, full curve, poor fit]
11 | CCc1ccc(CNC(=O)C2CCCN(S(=O)(=O)N3CC(C)CC(C)C3)C2)cc1 (stereo unspecified) | – | inconclusive: 7.94 µM [inhibitor, partial curve, poor fit]
12 | COc1ccccc1-n1cnc2cc(NS(=O)(=O)c3ccc(Br)cc3)ccc21 | – | inconclusive: 18.3 µM [inhibitor, partial curve, poor fit]
13 | COC(=O)c1cc(OCC(=O)NC2CCCc3ccccc32)cc(C(=O)OC)c1 (stereo unspecified) | – | inconclusive: 12.6 µM [inhibitor, single point]
14 | Cc1ccc(Nc2nc(-c3ccccc3)c(CC(=O)O)s2)cc1 | inactive: -9.36% [at 46.1 µM] | –
15 | O=C(CCC1N=C2c3ccccc3N=C(SCc3ccccc3Cl)N2C1=O)N1CCN(c2ccccc2)CC1 (stereo unspecified) | inactive: 6.29% [at 46.1 µM] | –
16 | CCOc1cc(/C=N/Nc2cccc(C(=O)O)c2)ccc1OC(=O)c1ccccc1 | – | inconclusive: 1.12 µM [inhibitor, full curve, poor fit]
17 | CN1/C(=C\C(=S)NC(=O)c2ccccc2Cl)C(C)(C)c2ccccc21 | – | inconclusive: 35.5 µM [inhibitor, single point]
18 | COc1ccc(/C=N/NC(=O)c2cc(C34CC5CC(CC(C5)C3)C4)[nH]n2)cc1OC | – | inconclusive: 5.62 µM [inhibitor, full curve, poor fit]
19 | CC(C)NC(=O)c1cnc(Sc2ncc(C(F)(F)F)cc2Cl)n1C | – | inconclusive: 4.47 µM [inhibitor, full curve, poor fit]
20 | O=C(CO/N=C/c1ccccc1)N1c2ccccc2Oc2ccccc21 | – | inconclusive: 22.4 µM [inhibitor, single point]
21 | COc1ccc(CNC(=O)COC(=O)C2CC2C)cc1OC (stereo unspecified) | – | inconclusive: 1.41 µM [activator, partial curve, poor fit]
22 | Cc1ccc(-c2nnc(NCc3nc4ccccc4[nH]3)c3ccccc23)cc1S(=O)(=O)N1CCOCC1 | – | inconclusive: 8.91 µM [inhibitor, partial curve, poor fit]
23 | CCSc1ncc(Cl)c(C(=O)Nc2ccc(S(=O)(=O)Nc3nccc(C)n3)cc2)n1 | – | inconclusive: 1.12 µM [inhibitor, full curve, poor fit]
24 | Cc1ccc(Cl)cc1NC(=O)Cn1cc2c(n1)CCCCC2 | inactive: -21.7% [at 46.1 µM] | –

Row | SMILES | activity change, negative = inhibition | Potency
25 | COc1ccc(N2CCC(CNC(=S)Nc3cccc(C)c3)C2)cc1 (stereo unspecified) | – | inconclusive: 0.112 µM [activator, full curve, poor fit]
26 | CCOC(=O)C(=O)Cc1nc(OCc2ccccc2)cc(OCc2ccccc2)n1 | – | inconclusive: 11.2 µM [inhibitor, partial curve, poor fit]
27 | Cc1ccc(Sc2ncnc(N)c2[N+](=O)[O-])cc1 | inactive: -42.3% | –
28 | COc1ccc(CN(Cc2ccco2)c2cnc(S(C)(=O)=O)nc2C(=O)Nc2ccc(C)c(C)c2)cc1 | – | inconclusive: 35.5 µM [inhibitor, single point]
29 | O=C1CC2(CCN(C(=O)c3ccc(Cl)cc3)CC2)Oc2ccccc21 | inactive: -8.68% [at 46.1 µM] | –
30 | CCCNC(=O)c1ccc2nc(-c3ccccc3)c(-c3ccccc3)nc2c1 | inactive: -25.5% | –
31 | O=C(O)c1cn(-c2ccccc2)nc1-c1ccncc1 | inactive: 22.6% [at 46.1 µM] | –
32 | Cc1nnc(SCc2cc(=O)[nH]c(=S)[nH]2)s1 | – | inconclusive: 35.5 µM [activator, partial curve, poor fit]
33 | NNCc1cccc(O)c1 | – | inactive
34 | O=C(Nc1cc(S(=O)(=O)N2CCOCC2)ccc1N1CCCCC1)c1ccccc1Br | – | inconclusive: 11.2 µM [inhibitor, partial curve, poor fit]
35 | CS(=O)(=O)N1CCN(c2ccccc2NC(=O)c2ccc3c(c2)OCCO3)CC1 | – | inconclusive: 35.5 µM [inhibitor, single point]
36 | CNS(=O)(=O)c1cc(-c2nnc(Nc3ccc(NC(C)=O)cc3)c3ccccc23)ccc1C | – | inconclusive: 3.16 µM [inhibitor, partial curve]
37 | COc1cc2c(cc1OC)C(COc1ccc3c(C)cc(=O)oc3c1)N(C(=O)c1ccco1)CC2 (stereo unspecified) | – | inconclusive: 13 µM [inhibitor, partial curve, poor fit]
38 | COc1ccc(C(C(=O)NC2CCCC2)N(C(=O)c2ccco2)c2ccccc2OC)cc1 (stereo unspecified) | – | inconclusive: 12.6 µM [inhibitor, partial curve]
39 | Nc1c2c(nc3ccccc13)N(C1CCCCC1)CC2 | – | active: 10 µM
40 | Nc1c(C(=O)Nc2ccc(OC(F)(F)F)cc2)sc2nc3c(cc12)N1CCC3CC1 | inactive: -23.4% [at 46.1 µM] | –
41 | CCNS(=O)(=O)c1ccc(CCC(=O)Nc2ccccc2)cc1 | inactive: -10.7% [at 46.1 µM] | –
42 | S=C(NCCCN1CCOCC1)Nc1ccc(-c2nc3ccccc3[nH]2)cc1 | – | inconclusive: 35.5 µM [inhibitor, single point]
43 | O=C(c1cccs1)n1nc(NCc2ccccc2)nc1NCc1ccccc1 | – | inconclusive: 20.6 µM [inhibitor, partial curve, poor fit]
44 | CN(C)C(=O)COc1ccc(S(=O)(=O)c2ccc(OCC(=O)N(C)C)cc2)cc1 | inactive: -4.2% [at 46.1 µM] | –
45 | C[C@H](N)Cc1c[nH]c2ccc(O)cc12 | – | inactive
46 | CCOc1cc(/C=N/NC(=O)Cc2ccc(C(F)(F)F)cc2[N+](=O)[O-])ccc1O | inactive: 1.73% | –
47 | CC(=O)Nc1ccc(Nc2nc(C(F)(F)F)nc3c2nnn3Cc2ccccc2Cl)cc1 | inactive: -28.4% [at 46.1 µM] | –
48 | O=C1c2ccccc2C(=O)N1/N=C/c1ccc(O)c(O)c1O | inactive: -13% [at 46.1 µM] | –

Row | SMILES | activity change, negative = inhibition | Potency
49 | Cc1cccc(C)c1OCCn1c(C2CC(=O)N(Cc3ccc(F)cc3)C2)nc2ccccc21 (stereo unspecified) | inactive: 2.66% [at 46.1 µM] | –
50 | Cc1ccc(-c2nnc(N3CCN(c4ccccn4)CC3)c3ccccc23)cc1 | – | inconclusive: 35.5 µM [inhibitor, single point]
51 | Cc1ccc2nc(C)cc(N/N=C/c3cccc(O)c3)c2c1 | – | inconclusive: 0.126 µM [inhibitor, full curve, poor fit]
52 | COc1ccc(/C(N)=N/OC(=O)Cc2ccccc2OC)cc1 | inactive: 21.4% | –
53 | COc1ccc(C(CNC(=O)c2cc3ccccc3o2)N2CCCCC2)cc1 (stereo unspecified) | inactive: -25.1% [at 46.1 µM] | –
54 | Cc1c(C(=O)Oc2cc(N)n(S(C)(=O)=O)n2)cccc1[N+](=O)[O-] | inactive: -11.6% [at 46.1 µM] | –
55 | S=C(NCC1CC1)N/N=C/c1ccccc1Cl | – | inconclusive: 35.5 µM [inhibitor, partial curve, poor fit]
56 | CC(C)(C)Sc1ccc([N+](=O)[O-])cc1C(=O)Nc1ccncc1 | inactive: 4.02% [at 46.1 µM] | –
57 | O=C(CCNC(=O)c1ccc(Br)cc1)NCc1ccccc1F | inactive: -29.7% [at 46.1 µM] | –
58 | CCN1CCN(c2ccc(S(=O)(=O)N3CCCCC3)cc2NC(=O)c2cccc(F)c2)CC1 | – | inconclusive: 35.5 µM [inhibitor, single point]
59 | Cc1ccc(NC(=O)CSc2nc3ccc(NC(=O)c4ccco4)cc3s2)c(C)c1 | – | inconclusive: 2.24 µM [activator, partial curve, poor fit]
60 | CN(C)S(=O)(=O)c1ccc(N2CCCC2)c(C(=O)Nc2ccccc2N2CCOCC2)c1 | – | inconclusive: 22.4 µM [inhibitor, single point]
61 | COc1ccc([N+](=O)[O-])cc1NC(=O)c1ccc(CN(c2ccccc2)S(C)(=O)=O)cc1 | inactive: 1.1% | –
62 | CSc1ncccc1C(=O)Nc1ccc(C)cn1 | – | inconclusive: 35.5 µM [activator, single point]
63 | O=C(NCCc1ccccc1)c1cc2sccc2n1Cc1ccc(F)cc1 | inactive: 12.7% [at 46.1 µM] | –
64 | CN(C)c1cccc(F)c1C(=O)NC(=O)Nc1ccc(Cl)cc1 | – | inconclusive: 1.41 µM [inhibitor, full curve]
65 | COc1ccc(CC(=O)Nc2ccc(-c3cn4cccc(C)c4n3)cc2)cc1OC | – | inconclusive: 11.2 µM [inhibitor, partial curve, poor fit]
66 | Cc1ccc(/C=C2\SC(=S)N(CCCC(=O)Nc3cccnc3)C2=O)cc1 | – | inconclusive: 2.82 µM [inhibitor, partial curve, poor fit]
67 | CCc1cc(C(=O)N/N=C/c2ccc(O)cc2)c2ccccc2n1 | – | inconclusive: 6.31 µM [inhibitor, full curve, poor fit]
68 | Cc1cccc(NC(=S)NC2CC3CCCC(C2)N3Cc2cccs2)c1 (stereo unspecified) | – | active: 1.64 µM
69 | COC(=O)Nc1ccc(OCc2ccccc2)cc1 | – | inconclusive: 6.51 µM [activator, single point]
70 | O=C(CCN1CCOCC1)c1ccc2c(c1)OCCO2 | inactive: 3.57% | –

4 structures from above, arranged by number of heavy atoms, high to low:
Row | SMILES | activity change, negative = inhibition | Potency
60 | CN(C)S(=O)(=O)c1ccc(N2CCCC2)c(C(=O)Nc2ccccc2N2CCOCC2)c1 | – | inconclusive: 22.4 µM [inhibitor, single point]
68 | Cc1cccc(NC(=S)NC2CC3CCCC(C2)N3Cc2cccs2)c1 (stereo unspecified) | – | active: 1.64 µM
64 | CN(C)c1cccc(F)c1C(=O)NC(=O)Nc1ccc(Cl)cc1 | – | inconclusive: 1.41 µM [inhibitor, full curve]
55 | S=C(NCC1CC1)N/N=C/c1ccccc1Cl | – | inconclusive: 35.5 µM [inhibitor, partial curve, poor fit]
